Measured values as given in article PMC2603005, “Structural insights into phenylethanolamines high-affinity binding site in NR2B from binding and molecular modeling studies” (Molecular Brain, 2008).

Sequences of proteins named here, by UniProt entry; tags and fusion partners are left off. Residues count along the entry.
UniProt Q00960, 27-393: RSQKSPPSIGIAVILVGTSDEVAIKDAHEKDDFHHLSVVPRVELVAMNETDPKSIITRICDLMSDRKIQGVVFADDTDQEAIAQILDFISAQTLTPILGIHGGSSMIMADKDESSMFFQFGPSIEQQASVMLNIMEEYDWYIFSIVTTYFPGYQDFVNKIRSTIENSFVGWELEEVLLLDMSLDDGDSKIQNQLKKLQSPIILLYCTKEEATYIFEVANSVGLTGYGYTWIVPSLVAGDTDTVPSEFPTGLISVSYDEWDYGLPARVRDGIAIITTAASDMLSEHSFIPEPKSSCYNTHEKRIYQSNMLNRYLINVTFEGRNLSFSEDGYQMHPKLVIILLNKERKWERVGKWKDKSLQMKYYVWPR

Biological target: 6 × His-ATD2B (amino-terminal domain of NR2B subunit), wild type (Rattus norvegicus, UniProt Q00960)
Assay: biochemical
Settings: Buffer-9 refolded protein, CD at 25°C, mean ± S.E., n = 5

SMILES: O=C(CCCN1CCC(O)(c2ccc(Cl)cc2)CC1)c1ccc(F)cc1 [haloperidol]
- Kd: 3.09 ± 0.94 µM
